Measurements as given in patent US6706880B2 (Research Triangle Institute, priority 1990, dated 2004).
Counter-ions that a name gives are not always drawn. For at least one compound, name, drawing or mass did not settle the structure.

Test system: dopamine transporter
Type: binding
Conditions: ratio of IC50 values, Table II
Excerpt: Illustrative in vitro assays for binding are described in Boja et al Ann. NY Acad. Sci. 654:282-291 (1992), which is incorporated herein by reference in its entirety. […] Alternatively, the compounds may be analyzed by their ability to inhibit reuptake of a labelled neurotransmitter in a sample, in particular, in synaptosomes.

Question: With Cc1cc([C@H]2[C@@H](c3ccc(Cl)cc3)C[C@@H]3CC[C@H]2N3C)on1 [RTI-165, 3β-(4-Chlorophenyl)-2β-(3-methylisoxazol-5-yl)tropane Hydrochloride] as the compound, how does the “5-HT/DA Ratio” value read?
Answer: 970

Question: What about the “NE/DA Ratio” value of the same compound?
Answer: 307
